No constants are given. Whether binding was seen depends on the method and setting. Binding seen in cells or lysates may run through a third protein. Some entries that bind do so weakly or less than the wild type.

For two substances, binding results are on record in article PMC11263447.

For experiment [1], the target named is p53, as found in the co-immunoprecipitations with ARTS and with XIAP (UniProt P04637). The experiment can be described thus: co-IP; cells lysed in RIPA buffer (50 mM Tris-HCl pH 7.5, 150 mM NaCl, 0.3% NP-40); antibody 5 µg per 1000 µg protein overnight at 4 °C; protein A/G agarose 4 h; five washes; western blot. Cell line not stated. Etoposide-treated cells for ARTS-p53.

The target of experiment [2] is endogenous p53 in A375 cells (human (endogenous in A375)) (UniProt P04637). Briefly: proximity ligation; Duolink in situ PLA on endogenous proteins in A375 cells treated with DMSO or 10 µM B3 for 6 h; confocal microscopy.

For the substance “endogenous XIAP (co-immunoprecipitation with p53) (from UniProt P98170 1-497)”, in experiment [1], the binding result is listed as “binds”.
As for “endogenous XIAP in A375 cells (from UniProt P98170 1-497)”, in experiment [2], the binding entry is listed as “binds”.
